From PubChem BioAssay (NCATS)
Inconclusive means that the source gave no clear call. Such entries were picked first, then a sample of the others. Potencies of inconclusive entries are doubtful fits and often do not repeat. Active and inactive are the calls of the source. Calls come from the whole dose curve; as a rule, active = well fitted inhibition curve with a large enough effect; inconclusive = small, poorly fitted or top-dose-only effect, or another doubt; inactive = no such curve, though single readings can be large or run the other way.

The chains behind the UniProt entries cited, without tags or fusion partners. Where a name states a change or a piece, a line headed by the entry shows the natural chain unless it says otherwise.
UniProt Q9UNA4: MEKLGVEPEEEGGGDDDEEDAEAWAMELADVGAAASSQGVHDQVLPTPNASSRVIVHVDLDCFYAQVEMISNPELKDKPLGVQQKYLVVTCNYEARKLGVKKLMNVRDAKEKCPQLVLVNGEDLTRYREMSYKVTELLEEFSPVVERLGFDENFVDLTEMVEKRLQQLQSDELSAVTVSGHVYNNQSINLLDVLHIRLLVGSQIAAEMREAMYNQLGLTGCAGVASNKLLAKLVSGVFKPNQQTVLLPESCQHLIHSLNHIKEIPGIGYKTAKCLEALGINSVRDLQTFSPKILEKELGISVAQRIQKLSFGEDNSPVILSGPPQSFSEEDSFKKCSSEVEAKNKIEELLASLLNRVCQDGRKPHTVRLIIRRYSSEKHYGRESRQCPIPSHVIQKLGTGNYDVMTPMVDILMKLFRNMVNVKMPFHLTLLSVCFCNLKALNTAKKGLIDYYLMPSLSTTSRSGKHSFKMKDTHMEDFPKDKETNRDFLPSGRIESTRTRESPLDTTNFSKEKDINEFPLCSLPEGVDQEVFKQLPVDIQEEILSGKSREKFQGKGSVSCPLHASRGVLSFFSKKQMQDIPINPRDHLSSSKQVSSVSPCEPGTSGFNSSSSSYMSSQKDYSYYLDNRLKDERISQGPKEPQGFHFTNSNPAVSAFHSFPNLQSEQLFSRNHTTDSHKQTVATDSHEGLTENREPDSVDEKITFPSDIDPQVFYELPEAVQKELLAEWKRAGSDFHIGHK

Each compound was assayed against DNA polymerase iota (Homo sapiens) (UniProt Q9UNA4) (assay: qHTS for Inhibitors of Polymerase Iota: Confirmatory Assay for Cherry-picked Compounds (AID 720496)). Details: Pol iota primer extension, TAMRA/BHQ fluorescence.
How it was run: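 Using TAMRA dequenching as read-out, activity of 10 nM human Pol iota on 50 nM (final) primer/reporter/template substrate was tracked from 0 to 10 min, following a 15 min room-temperature compound preincubation.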
Potency is the fitted concentration of half-maximal effect.

Potency, active:
COc1ccc(OC)c(NC(=O)Cn2c(=O)cc(-c3ccccc3)c3c(C)nn(C)c32)c1 47.4 µM, CCCc1c(C)[nH]c2ccc(C(=O)O)cc2c1=S 16.8 µM, O=C(CCN1C(=O)/C(=C/c2ccco2)SC1=S)Nc1ccc(C(=O)O)c(O)c1 29.9 µM, Cc1nc2ccccn2c1C(=O)N/N=C/c1ccc([N+](=O)[O-])o1 59.7 µM, C#Cc1ccc(C(=O)NCc2ccc(N3CCCC3=O)cc2)cc1 42.3 µM, O=C(N/N=C/c1cccc(F)c1)c1cc(-c2ccco2)nc2ccccc12 8.44 µM

Potency, inconclusive:
Cc1ccccc1Nc1nn2c(=O)c3ccc(C(=O)NCc4ccccc4)cc3nc2s1 59.7 µM [inhibitor, partial curve], O=C(COc1ccc(/C=N/NC(=O)c2ccc(O)cc2)cc1)Nc1cccc([N+](=O)[O-])c1 75.2 µM [inhibitor, partial curve], CC1=CC2=NC(=O)/C(=C\c3ccc(-c4cccc(Cl)c4)o3)C(=N)N2O1 10.6 µM [inhibitor, full curve], CC(CS(=O)(=O)c1ccc2c(c1)NC(=O)CS2)C(=O)NCc1ccccc1Cl (stereo not given) 67 µM [inhibitor, partial curve], CCOc1ccc(-c2c(C(=O)N/N=C/c3cccnc3)nnn2-c2nonc2N)cc1 75.2 µM [inhibitor, partial curve], CCOc1cc(/C=C2\C(=O)NN(c3ccccc3)C2=O)cc([N+](=O)[O-])c1O 75.2 µM [inhibitor, partial curve], O=C(NNC(=O)c1cc2cc3ccccc3nc2s1)c1cccc(Cl)c1 75.2 µM [inhibitor, partial curve], Cc1ccc(SC2=C(N(C)C)C(=O)c3ccccc3C2=O)cc1 84.4 µM [inhibitor, single point], O=C(Nc1ccc(-c2nc3ccccc3[nH]2)cc1)c1ccc(C(F)(F)F)cc1 75.2 µM [inhibitor, partial curve], CCOc1ccc(/C=N/NC(=O)c2cc3c(OC)cccc3[nH]2)cc1 75.2 µM [inhibitor, partial curve], COc1ccc(/C=N\NC(=O)c2c(C)nc3ccc(Br)cn23)cc1 67 µM [inhibitor, partial curve], CCOc1ccc2nc(Cl)c(C3CC(c4ccc(OC)cc4)=NN3S(C)(=O)=O)cc2c1 (stereo not given) 59.7 µM [inhibitor, partial curve], Cc1ccc(SC2=C(Sc3ccc(C)cc3)C(=O)c3ccccc3C2=O)cc1 94.7 µM [inhibitor, single point], Cc1nc(C)c(C(=O)Nc2nc3c(C)cccc3s2)o1 59.7 µM [inhibitor, partial curve], Cc1ccc(-c2cc(C(=O)N/N=C/c3c(C)nn(C)c3C)c3ccccc3n2)cc1C 59.7 µM [inhibitor, partial curve], COc1ccc(Br)cc1CNC(=O)CN1C(=O)c2cccnc2Oc2ccc(C)cc21 29.9 µM [inhibitor, full curve], COc1ccc(-n2c(SCC(=O)Nc3nccs3)nnc2-c2ccc(Cl)cc2)cc1 59.7 µM [inhibitor, partial curve], COc1cc(/C=N/N2C(=O)CSC2=S)cc(Br)c1O 75.2 µM [inhibitor, partial curve], O=C(O)c1ccc(-n2cccc2/C=C2\SC(=O)N(Cc3cccc(Cl)c3)C2=O)cc1 75.2 µM [inhibitor, partial curve], O=Cc1cn(-c2ccccc2)nc1-c1cc2cc(O)ccc2oc1=O 75.2 µM [inhibitor, single point], CCCCC(=O)Nc1sc2c(c1-c1nc3ccccc3s1)CCN(C(C)C)C2 42.3 µM [inhibitor, partial curve], O=C(O)c1cccc(-c2ccc(/C=N/NC(=O)c3cccnc3)o2)c1 67 µM [inhibitor, partial curve, poor fit], Cc1ccc(NC(=O)CSc2nc3ccccc3c3nc(CCn4c(C)nc5ccccc54)nn23)cc1F 16.8 µM [inhibitor, full curve], Cc1cccc(C)c1NC(=O)CN(C)C(=O)c1cccc(-n2cccc2)c1 59.7 µM [inhibitor, partial curve], CC1=C(C(=O)Nc2cccnc2)C(c2cccc(O)c2)n2nc(SCc3ccccc3)nc2N1 (stereo not given) 53.2 µM [inhibitor, partial curve], Cc1cccc(C(=O)NC(=S)Nc2cccc3nc(C)ccc23)c1 59.7 µM [inhibitor, partial curve], Cn1c2ccccc2c(=O)c2ccc(C#Cc3ccccn3)cc21 33.6 µM [inhibitor, full curve], C=C(C)C(=O)Nc1cccc(C2=NOC3(C2)C[C@H](C(N)=O)N(C(=O)/C=C/C)C3)c1 (stereo not given in full) 33.6 µM [inhibitor, partial curve], COc1ccc(C(=O)N/N=C/c2ccc(OC(=O)c3cccc4ccccc34)c([N+](=O)[O-])c2)cc1 75.2 µM [inhibitor, partial curve], CC(=O)Nc1ccc(C(=O)/C=C/c2ccco2)cc1 75.2 µM [inhibitor, partial curve], CC(=O)c1cccc(NC(=O)CCc2nnc3ccc(NCc4ccco4)nn23)c1 67 µM [inhibitor, partial curve], COc1cc(/C=C/c2nc3ccccc3c(=O)[nH]2)cc(Cl)c1O 67 µM [inhibitor, partial curve], O=C(O)c1ccc2c3c(cccc13)C(=O)N(c1ccccc1)C2=O 75.2 µM [inhibitor, partial curve], O=C(Nc1cccc(-c2cn3ccccc3n2)c1)c1cc2ccccc2oc1=O 37.7 µM [inhibitor, partial curve]
